PubChem BioAssay AID1259254, NCATS, 2017
Purpose: 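Gene knock-downs that lead to re-replication, shown by excess G2 DNA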 (primary screen). Cells: human HCT116 colorectal cancer cells. Knock-down reagent: single siRNA against human genes. Time to read-out: 3 days. Read-out: 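Imaged Hoechst DNA stain sorts each cell into a cycle phase by DNA amount; per plate, G2 fraction set to 0% for non-targeting and 100% for GMNN siRNA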. Reading the numbers: G2 robust z-score: higher = more G2 cells, more excess DNA replication. Call rule: 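Active siRNAs have a G2 robust z of 5 or more median absolute deviations over the median, which in these data means about 38% or higher of GMNN control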.
The deposit covers about 59,000 reagents; this is a part drawn at random. About 1,550 of all reagents (2.6%) count as active. 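G2 share is only a proxy for re-replication; each gene was hit by three separate siRNAs, and active genes were retested.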 Reagents against one gene are numbered here. Not all columns of the deposit are shown. Reagent sequences are not shown. Not given: the amount of reagent.

G2 robust z-score, by gene and reagent
YOD1 (YOD1 deubiquitinase): #1 -0.612 inactive; #2 0.218 inactive; #3 1.34 inactive
KRT39 (keratin 39): #1 -0.0128 inactive; #2 0.0507 inactive; #3 0.163 inactive
IFNG (interferon gamma): #1 -0.624 inactive; #2 0.483 inactive; #3 -0.618 inactive
RNF207 (ring finger protein 207): #1 -0.72 inactive; #2 -0.175 inactive; #3 -0.863 inactive
PRKAR1B (protein kinase cAMP-dependent type I regulatory subunit beta): #1 -0.572 inactive; #2 0.237 inactive; #3 -0.951 inactive
PAG1: #1 1.7 inactive; #2 -0.104 inactive; #3 -1.42 inactive
ZMYND10 (zinc finger MYND-type containing 10): #1 -0.763 inactive; #2 0.897 inactive; #3 -0.698 inactive
ARMC1 (armadillo repeat containing 1): #1 -0.257 inactive; #2 2.11 inactive; #3 1.63 inactive
DLK1 (delta like non-canonical Notch ligand 1): #1 0.586 inactive; #2 0.542 inactive; #3 0.00844 inactive
SLC2A4: #1 5.22 active; #2 -0.564 inactive; #3 2 inactive
PDXDC1 (pyridoxal dependent decarboxylase domain containing 1): #1 3.21 inactive; #2 0.126 inactive; #3 0.695 inactive
ECI1 (enoyl-CoA delta isomerase 1): #1 0.18 inactive; #2 2.29 inactive; #3 -0.317 inactive
CDC20B (cell division cycle 20B): #1 0.761 inactive; #2 -0.638 inactive; #3 1.07 inactive

10 entries from above, sorted by “G2 robust z-score”, lowest first.
gene	reagent	G2 robust z-score	call
RNF207 (ring finger protein 207)	1	-0.72	inactive
IFNG (interferon gamma)	1	-0.624	inactive
IFNG (interferon gamma)	3	-0.618	inactive
RNF207 (ring finger protein 207)	2	-0.175	inactive
KRT39 (keratin 39)	1	-0.0128	inactive
KRT39 (keratin 39)	2	0.0507	inactive
KRT39 (keratin 39)	3	0.163	inactive
YOD1 (YOD1 deubiquitinase)	2	0.218	inactive
IFNG (interferon gamma)	2	0.483	inactive
YOD1 (YOD1 deubiquitinase)	3	1.34	inactive

Continued:
G2 robust z-score, by gene and reagent
FOLR3 (folate receptor gamma): #1 1.58 inactive; #2 0.789 inactive; #3 -0.38 inactive
MGRN1 (mahogunin ring finger 1): #1 2.17 inactive; #2 2.4 inactive; #3 -0.491 inactive
OR6C70 (olfactory receptor family 6 subfamily C member 70): #1 -0.508 inactive; #2 -0.569 inactive; #3 0.164 inactive
LINC02210 (long independently transcribed non-coding RNA 2210): #1 -0.133 inactive; #2 0.594 inactive; #3 0.00579 inactive; #4 -0.304 inactive; #5 8.05 active; #6 -0.732 inactive
GTPBP2 (GTP binding protein 2): #1 -0.104 inactive; #2 0.0304 inactive; #3 0.0985 inactive
DENND6B (DENN domain containing 6B): #1 -0.536 inactive; #2 -0.371 inactive; #3 4.91 inactive
LPL (lipoprotein lipase): #1 -1.03 inactive; #2 2.57 inactive; #3 0.374 inactive
ZNF703 (zinc finger protein 703): #1 -0.387 inactive; #2 -0.126 inactive; #3 -0.532 inactive
PSMB11 (proteasome subunit beta 11): #1 -0.124 inactive; #2 -0.788 inactive; #3 2.2 inactive
